The results in this text go back to paper PMC3525598.

Amino acid sequences for entries named in this document (tags omitted).
UniProt Q969Q4: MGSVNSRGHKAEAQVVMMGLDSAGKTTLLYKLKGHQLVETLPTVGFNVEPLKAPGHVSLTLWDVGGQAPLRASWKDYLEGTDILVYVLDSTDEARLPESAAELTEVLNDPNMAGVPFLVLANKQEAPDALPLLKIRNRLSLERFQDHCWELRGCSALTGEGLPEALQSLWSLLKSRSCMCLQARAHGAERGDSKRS
UniProt P18669: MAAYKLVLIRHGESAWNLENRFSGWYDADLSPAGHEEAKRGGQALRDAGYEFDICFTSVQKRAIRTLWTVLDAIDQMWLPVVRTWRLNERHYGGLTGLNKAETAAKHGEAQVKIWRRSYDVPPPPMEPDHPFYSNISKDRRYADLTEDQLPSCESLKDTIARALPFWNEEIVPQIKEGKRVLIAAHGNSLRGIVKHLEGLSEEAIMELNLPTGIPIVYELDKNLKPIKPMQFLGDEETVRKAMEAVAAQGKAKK

Assay [1] has as its target ARL11-YFP2 (ras-related ADP-ribosylation factor-like 11 fused to yellow fluorescent protein fragment 2 at its C-terminus) (human) (UniProt Q969Q4). Kind of assay: split reporter; YFP protein complementation with single constructs: HEK-293T cells on cover slips co-transfected with the YFP1-tagged protein and ARL11-YFP2; fixed after 24 hours, DAPI, confocal microscopy.
Another assay deals with HA-tagged ARL11 (human) (UniProt Q969Q4). Kind of assay: co-IP; HEK-293T cells co-transfected; lysed by sonication in 137 mM NaCl, 10 mM phosphate, 2.7 mM KCl with protease inhibitors; anti-HA antibody agarose beads, 4°C for 5 hours, washed thrice; western blot for the partner.
Assay [2] deals with ARL11-YFP2 (ras-related ADP-ribosylation factor-like 11 fused to yellow fluorescent protein fragment 2 at its C-terminus) (human) (UniProt Q969Q4). Kind of assay: split reporter; YFP protein complementation screen: HEK-293T cells co-transfected with the YFP1-tagged in-frame cDNA library (prey) and ARL11-YFP2 (bait); brightest about 1% of fluorescent cells sorted after 24 hours; plasmids from single colonies co-transfected again with ARL11-YFP2 to confirm fluorescence, then sequenced.

The next assay addresses T1, HA-tagged CRABP2 (human) (UniProt P29373).
T1 sequence: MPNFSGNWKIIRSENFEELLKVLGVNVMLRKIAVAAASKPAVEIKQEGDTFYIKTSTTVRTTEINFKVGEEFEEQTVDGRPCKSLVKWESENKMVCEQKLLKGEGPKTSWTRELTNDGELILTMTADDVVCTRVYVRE
Nature of the assay: co-IP; HEK-293T cells co-transfected; lysed by sonication in 137 mM NaCl, 10 mM phosphate, 2.7 mM KCl with protease inhibitors; anti-HA antibody agarose beads, 4°C for 5 hours, washed thrice; western blot for the partner.

In the next assay the target is HA-tagged PGAM1 (human) (UniProt P18669). The assay is described as above.
Assay [3] concerns the target ARL11-YFP2 (ras-related ADP-ribosylation factor-like 11 fused to yellow fluorescent protein fragment 2 at its C-terminus) (human) (UniProt Q969Q4). Kind of assay: split reporter; YFP protein complementation screen: HEK-293T cells co-transfected with the YFP1-tagged in-frame cDNA library (prey) and ARL11-YFP2 (bait); brightest about 1% of fluorescent cells sorted after 24 hours; plasmids from single colonies co-transfected again with ARL11-YFP2 to confirm fluorescence, then sequenced. The source holds these as a separate data set.

No constants are given. Whether binding was seen depends on the method and setting. Binding seen in cells or lysates may run through a third protein. Some entries that bind do so weakly or less than the wild type. For some of these results: Tags and fused reporters may be left off the sequences shown.

With “YFP1-PGAM1 (phosphoglycerate mutase 1 with N-terminal yellow fluorescent protein fragment 1, construct without 5′-UTR) (from UniProt P18669 1-254) (enzyme)”, the binding entry (in assay [1]; with HA-tagged ARL11 (human); in assay [2]) was “binds” throughout.

Regarding “FLAG-tagged PGAM1 (from UniProt P18669 1-254) (enzyme)”, in the assay with HA-tagged ARL11 (human), the binding entry is given as “binds”.

As to “FLAG-tagged ARL11 (from UniProt Q969Q4 1-196)”, the binding result with HA-tagged CRABP2 (human) and with HA-tagged PGAM1 (human) was “binds” throughout.

B1: YFP1-CRABP2 (cellular retinoic acid binding protein 2 with N-terminal yellow fluorescent protein fragment 1, construct without 5′-UTR) (protein, UniProt P29373 1-138)
chain: T1 sequence
On to B1, for which the binding entry (in assay [1]; with HA-tagged ARL11 (human); in assay [3]) was “binds” throughout.

B2: FLAG-tagged CRABP2 (construct without its 5′-UTR) (protein, UniProt P29373 1-138)
chain: T1 sequence
For B2, the binding entry with HA-tagged ARL11 (human) is listed as “binds”.
